Source: article PMC6745036
Results are given in words; binding and its absence hold for the method and conditions named. In cells and extracts the contact can be indirect. Some entries that bind do so weakly or less than the wild type.

Sequences of proteins named here, by UniProt entry; tags and fusion partners are left off.
UniProt Q9R210: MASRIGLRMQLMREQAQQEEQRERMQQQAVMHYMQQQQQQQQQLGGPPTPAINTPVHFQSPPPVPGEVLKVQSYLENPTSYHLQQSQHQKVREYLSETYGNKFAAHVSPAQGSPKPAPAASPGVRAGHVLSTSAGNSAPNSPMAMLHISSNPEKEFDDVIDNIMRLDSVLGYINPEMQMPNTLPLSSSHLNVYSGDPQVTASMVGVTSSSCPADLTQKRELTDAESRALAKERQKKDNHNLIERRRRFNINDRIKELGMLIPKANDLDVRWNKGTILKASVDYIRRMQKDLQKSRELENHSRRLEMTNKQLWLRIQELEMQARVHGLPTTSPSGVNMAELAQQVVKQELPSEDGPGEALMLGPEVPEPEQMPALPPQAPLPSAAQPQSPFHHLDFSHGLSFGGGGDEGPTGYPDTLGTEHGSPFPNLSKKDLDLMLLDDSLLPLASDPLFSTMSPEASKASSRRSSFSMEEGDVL

Target: T1, CARM1 (mouse (endogenous in C57BL/6 skin flap tissue)) (UniProt Q9WVG6)
T1 sequence: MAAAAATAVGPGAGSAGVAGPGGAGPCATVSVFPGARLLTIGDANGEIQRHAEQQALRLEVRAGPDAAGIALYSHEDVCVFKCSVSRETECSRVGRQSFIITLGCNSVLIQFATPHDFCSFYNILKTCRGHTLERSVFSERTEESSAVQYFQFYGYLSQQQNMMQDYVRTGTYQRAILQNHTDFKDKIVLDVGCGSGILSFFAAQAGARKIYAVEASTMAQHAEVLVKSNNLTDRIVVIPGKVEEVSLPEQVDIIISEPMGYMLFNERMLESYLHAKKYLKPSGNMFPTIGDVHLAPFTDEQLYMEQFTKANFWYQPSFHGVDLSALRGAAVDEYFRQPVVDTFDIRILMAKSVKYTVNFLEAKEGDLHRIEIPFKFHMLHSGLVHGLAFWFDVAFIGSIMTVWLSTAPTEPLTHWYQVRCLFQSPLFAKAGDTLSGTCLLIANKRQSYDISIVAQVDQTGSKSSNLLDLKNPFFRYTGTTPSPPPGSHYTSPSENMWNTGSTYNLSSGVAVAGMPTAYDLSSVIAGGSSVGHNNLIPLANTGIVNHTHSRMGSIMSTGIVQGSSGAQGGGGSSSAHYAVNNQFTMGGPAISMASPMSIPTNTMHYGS
Test: co-IP; Pierce Co-Immunoprecipitation Kit; antibodies immobilised on coupling resin, mixed with flap lysate at 4 degrees Celsius overnight, eluted proteins western blotted; skin flaps of mice of the Control, SUC (sucrose) and TRE (trehalose) groups, POD 7

binding: binds
Substance: TFEB (from UniProt Q9R210 1-475)
